This is one part of the list.
What was measured:
Assay in all cases: log2 fold change, soluble protein after heating vs DMSO (PISA); higher = thermal stabilisation; K562 lysate, 10 uM; active = over 0.2 and 3.5 SD of the protein, either way, in both replicates (recomputed)
[1] = compound: C=CC(=O)N1CCC[C@@H](n2nc(-c3ccc(Oc4ccccc4)cc3)c3c(N)ncnc32)C1 [ibrutinib]
Method in brief: (§1)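 To prepare the extract, K562 pellets were dounce-homogenised in PBS pH 7.4 with 1 mM MgCl2, giving crude material at 1 mg/mL protein. This was treated with 10 μM compound for 30 min, then heated in aliquots for 3 min over 48°C-58°C before pooling and addition of NP-40 to 0.5% at 4°C. Centrifugation at 21,000xg for 90 min left soluble protein in the supernatant, which TMTpro 16plex LC-MS/MS quantified with equalised channel sums. Results are log-two fold changes in thermal stability compared with solvent controls, from duplicates.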

Amino acid sequences for entries named in this document (tags omitted). A change or cut given only in a name is not applied to a line headed by its entry.
UniProt Q9UBU9: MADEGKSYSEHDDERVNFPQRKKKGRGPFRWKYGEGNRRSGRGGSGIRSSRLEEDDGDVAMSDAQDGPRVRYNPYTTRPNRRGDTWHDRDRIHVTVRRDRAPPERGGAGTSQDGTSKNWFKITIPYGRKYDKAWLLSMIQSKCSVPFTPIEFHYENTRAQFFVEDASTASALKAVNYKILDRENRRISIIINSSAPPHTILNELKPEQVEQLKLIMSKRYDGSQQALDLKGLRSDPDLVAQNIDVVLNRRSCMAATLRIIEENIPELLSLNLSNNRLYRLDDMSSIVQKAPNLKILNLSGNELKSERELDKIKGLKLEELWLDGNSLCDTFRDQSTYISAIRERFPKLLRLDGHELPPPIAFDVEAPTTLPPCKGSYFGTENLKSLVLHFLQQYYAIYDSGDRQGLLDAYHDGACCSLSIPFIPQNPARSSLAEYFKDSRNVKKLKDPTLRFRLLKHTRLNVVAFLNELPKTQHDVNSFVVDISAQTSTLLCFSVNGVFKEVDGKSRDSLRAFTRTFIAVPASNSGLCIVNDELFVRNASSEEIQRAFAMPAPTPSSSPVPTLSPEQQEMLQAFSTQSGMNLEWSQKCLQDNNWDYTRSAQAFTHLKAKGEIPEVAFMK
UniProt Q8N543: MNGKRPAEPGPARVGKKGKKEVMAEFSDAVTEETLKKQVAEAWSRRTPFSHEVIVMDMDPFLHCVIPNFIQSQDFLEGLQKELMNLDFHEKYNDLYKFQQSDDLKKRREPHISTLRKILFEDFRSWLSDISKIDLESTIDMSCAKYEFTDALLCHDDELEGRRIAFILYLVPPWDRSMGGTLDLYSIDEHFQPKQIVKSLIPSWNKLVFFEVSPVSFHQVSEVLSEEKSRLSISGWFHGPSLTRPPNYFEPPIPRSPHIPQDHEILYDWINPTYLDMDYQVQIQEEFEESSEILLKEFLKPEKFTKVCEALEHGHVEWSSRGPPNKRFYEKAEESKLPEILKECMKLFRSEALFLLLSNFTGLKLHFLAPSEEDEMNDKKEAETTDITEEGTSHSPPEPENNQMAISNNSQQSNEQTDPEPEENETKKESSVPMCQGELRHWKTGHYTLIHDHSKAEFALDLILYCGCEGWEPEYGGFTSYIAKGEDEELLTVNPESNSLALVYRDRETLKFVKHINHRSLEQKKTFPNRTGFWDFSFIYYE
UniProt Q6PK18: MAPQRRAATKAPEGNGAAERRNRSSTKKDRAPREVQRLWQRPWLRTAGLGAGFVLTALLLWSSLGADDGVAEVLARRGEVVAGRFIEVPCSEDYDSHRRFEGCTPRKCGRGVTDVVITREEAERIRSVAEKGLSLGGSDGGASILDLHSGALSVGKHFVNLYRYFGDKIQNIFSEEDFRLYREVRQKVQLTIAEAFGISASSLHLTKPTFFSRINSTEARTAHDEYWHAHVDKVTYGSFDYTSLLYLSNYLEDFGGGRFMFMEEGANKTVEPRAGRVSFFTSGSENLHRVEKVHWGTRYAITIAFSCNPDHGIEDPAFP
UniProt Q9NTK5, whole entry, looked up: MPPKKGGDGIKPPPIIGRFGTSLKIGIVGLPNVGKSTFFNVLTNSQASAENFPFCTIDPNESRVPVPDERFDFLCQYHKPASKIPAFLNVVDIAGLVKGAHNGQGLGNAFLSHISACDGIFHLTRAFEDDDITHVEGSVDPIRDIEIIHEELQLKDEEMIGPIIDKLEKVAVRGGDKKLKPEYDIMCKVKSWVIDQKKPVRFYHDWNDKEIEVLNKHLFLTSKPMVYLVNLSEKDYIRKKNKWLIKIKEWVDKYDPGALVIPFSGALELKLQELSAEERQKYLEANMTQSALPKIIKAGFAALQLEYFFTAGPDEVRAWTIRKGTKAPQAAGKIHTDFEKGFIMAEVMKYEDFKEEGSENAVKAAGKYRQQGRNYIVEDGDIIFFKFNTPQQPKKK
UniProt Q96E52: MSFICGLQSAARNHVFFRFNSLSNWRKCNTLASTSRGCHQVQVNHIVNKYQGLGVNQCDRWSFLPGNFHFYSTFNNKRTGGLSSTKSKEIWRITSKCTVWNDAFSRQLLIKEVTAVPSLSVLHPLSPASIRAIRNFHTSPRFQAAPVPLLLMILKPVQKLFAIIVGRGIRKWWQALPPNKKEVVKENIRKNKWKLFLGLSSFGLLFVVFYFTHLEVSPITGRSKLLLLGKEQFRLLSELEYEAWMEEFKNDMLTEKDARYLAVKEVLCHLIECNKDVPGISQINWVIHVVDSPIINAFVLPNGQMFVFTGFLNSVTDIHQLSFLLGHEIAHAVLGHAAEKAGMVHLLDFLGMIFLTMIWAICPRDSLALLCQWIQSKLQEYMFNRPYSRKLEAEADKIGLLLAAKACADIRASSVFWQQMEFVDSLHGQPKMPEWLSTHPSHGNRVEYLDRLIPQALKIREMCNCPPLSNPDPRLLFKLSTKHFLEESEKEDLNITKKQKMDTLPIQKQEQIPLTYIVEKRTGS
UniProt Q9NPF4: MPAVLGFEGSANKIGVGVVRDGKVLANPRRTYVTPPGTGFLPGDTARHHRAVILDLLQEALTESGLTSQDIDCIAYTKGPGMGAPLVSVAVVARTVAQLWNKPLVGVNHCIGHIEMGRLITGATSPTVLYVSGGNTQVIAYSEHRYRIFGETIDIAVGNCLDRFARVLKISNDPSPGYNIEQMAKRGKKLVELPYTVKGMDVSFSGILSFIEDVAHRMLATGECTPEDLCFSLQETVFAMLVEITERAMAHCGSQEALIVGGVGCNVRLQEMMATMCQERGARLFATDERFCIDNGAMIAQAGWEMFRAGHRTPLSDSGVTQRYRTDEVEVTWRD
UniProt Q6N063: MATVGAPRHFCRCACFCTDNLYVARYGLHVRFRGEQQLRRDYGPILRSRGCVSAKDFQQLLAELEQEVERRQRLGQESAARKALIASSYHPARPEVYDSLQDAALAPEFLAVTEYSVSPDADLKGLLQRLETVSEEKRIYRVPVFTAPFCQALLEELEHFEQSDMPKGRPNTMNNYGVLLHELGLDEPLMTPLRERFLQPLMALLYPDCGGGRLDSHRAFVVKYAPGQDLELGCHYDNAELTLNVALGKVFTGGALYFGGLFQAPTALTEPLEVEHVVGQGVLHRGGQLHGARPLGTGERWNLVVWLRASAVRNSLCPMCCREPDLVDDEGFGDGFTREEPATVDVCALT
UniProt Q86WC4: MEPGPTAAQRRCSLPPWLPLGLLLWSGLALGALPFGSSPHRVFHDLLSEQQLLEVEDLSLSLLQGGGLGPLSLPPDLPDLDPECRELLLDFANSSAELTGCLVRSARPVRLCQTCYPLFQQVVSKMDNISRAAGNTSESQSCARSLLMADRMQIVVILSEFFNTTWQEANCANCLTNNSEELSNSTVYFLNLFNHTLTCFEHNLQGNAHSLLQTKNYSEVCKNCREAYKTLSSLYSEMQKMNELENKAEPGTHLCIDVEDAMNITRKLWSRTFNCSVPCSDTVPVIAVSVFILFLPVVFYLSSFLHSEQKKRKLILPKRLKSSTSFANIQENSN
UniProt O96013: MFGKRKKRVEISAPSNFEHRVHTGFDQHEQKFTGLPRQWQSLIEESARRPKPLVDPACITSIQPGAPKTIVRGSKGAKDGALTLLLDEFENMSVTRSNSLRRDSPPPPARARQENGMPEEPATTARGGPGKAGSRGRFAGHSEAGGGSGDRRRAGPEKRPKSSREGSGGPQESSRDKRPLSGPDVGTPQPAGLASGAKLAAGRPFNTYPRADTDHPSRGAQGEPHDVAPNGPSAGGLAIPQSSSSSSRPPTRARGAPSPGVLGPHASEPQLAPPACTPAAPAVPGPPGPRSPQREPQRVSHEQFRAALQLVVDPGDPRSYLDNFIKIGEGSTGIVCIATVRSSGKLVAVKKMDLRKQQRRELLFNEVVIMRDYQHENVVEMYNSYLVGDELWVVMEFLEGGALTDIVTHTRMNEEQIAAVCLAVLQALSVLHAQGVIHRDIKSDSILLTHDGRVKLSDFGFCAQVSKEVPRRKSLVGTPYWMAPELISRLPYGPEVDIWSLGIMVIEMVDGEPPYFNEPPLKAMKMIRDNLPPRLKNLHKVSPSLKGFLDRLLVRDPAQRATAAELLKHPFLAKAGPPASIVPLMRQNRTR
UniProt Q9NRP0: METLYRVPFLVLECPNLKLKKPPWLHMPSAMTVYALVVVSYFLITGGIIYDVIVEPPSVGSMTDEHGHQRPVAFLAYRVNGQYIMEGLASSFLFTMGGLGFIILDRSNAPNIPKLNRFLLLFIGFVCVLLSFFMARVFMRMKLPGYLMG
UniProt P68402: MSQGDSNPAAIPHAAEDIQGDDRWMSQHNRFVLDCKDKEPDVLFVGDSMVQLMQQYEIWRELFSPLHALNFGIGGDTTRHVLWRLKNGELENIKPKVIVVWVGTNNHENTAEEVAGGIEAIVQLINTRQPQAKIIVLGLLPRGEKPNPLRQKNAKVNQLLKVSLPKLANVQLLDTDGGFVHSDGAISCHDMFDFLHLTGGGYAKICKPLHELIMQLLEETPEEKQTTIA
UniProt Q96GU1: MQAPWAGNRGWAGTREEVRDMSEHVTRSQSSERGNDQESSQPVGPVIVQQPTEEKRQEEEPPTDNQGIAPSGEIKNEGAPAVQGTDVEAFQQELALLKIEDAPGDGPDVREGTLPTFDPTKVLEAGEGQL
UniProt Q9NZT2: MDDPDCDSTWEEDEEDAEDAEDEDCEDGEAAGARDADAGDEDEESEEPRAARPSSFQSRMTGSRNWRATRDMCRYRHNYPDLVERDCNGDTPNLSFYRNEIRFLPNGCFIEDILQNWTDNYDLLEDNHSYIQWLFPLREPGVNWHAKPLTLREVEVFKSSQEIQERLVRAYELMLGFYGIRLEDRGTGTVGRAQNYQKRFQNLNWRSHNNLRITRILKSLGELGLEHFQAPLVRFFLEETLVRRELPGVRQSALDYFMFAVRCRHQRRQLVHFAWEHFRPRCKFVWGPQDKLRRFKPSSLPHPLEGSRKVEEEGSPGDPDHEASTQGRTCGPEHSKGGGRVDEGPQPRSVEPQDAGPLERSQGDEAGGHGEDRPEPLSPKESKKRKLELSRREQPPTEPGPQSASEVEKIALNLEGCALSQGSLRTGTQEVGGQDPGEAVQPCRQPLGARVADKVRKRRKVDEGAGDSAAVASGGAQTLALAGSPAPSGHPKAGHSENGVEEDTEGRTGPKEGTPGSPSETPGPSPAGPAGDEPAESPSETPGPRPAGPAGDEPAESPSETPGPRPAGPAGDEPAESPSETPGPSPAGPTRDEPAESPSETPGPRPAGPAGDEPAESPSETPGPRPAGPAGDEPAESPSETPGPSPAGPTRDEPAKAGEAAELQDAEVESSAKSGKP
UniProt Q504Q3: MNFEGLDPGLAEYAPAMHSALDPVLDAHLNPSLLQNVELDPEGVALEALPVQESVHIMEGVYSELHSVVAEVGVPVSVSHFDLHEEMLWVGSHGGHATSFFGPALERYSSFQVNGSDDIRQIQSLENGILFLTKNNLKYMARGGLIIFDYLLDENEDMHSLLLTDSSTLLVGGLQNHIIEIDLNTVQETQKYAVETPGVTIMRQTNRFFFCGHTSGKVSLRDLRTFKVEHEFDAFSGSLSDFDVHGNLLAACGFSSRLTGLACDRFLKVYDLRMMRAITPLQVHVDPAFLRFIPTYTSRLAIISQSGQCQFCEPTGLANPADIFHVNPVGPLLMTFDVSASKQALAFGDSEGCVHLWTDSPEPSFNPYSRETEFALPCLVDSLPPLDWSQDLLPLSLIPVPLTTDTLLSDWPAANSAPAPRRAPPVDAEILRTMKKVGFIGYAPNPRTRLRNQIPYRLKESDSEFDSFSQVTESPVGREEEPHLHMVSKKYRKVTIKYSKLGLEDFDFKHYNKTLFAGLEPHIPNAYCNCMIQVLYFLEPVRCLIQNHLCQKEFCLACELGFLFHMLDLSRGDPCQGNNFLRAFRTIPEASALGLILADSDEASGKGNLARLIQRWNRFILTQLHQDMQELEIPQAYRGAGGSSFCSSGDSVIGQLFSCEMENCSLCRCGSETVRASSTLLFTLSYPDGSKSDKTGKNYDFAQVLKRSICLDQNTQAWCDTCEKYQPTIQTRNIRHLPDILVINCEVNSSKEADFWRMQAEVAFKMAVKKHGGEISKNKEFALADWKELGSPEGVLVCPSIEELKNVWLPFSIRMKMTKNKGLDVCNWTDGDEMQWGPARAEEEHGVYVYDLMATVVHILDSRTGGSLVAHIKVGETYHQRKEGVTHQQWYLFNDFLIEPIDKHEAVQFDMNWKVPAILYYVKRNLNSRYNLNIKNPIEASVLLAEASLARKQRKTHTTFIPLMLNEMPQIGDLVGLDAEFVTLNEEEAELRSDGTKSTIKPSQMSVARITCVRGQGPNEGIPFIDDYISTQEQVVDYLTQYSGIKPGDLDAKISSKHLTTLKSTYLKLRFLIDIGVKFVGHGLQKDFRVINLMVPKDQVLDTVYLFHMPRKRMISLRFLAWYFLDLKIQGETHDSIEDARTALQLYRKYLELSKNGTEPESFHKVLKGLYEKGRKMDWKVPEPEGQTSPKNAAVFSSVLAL

[2] = compound: CC(=O)c1cnc2ccc(-c3cc(Cl)c(O)c(Cl)c3)nc2c1N[C@H]1CC[C@H](CN(C)C)CC1
Method in brief: as §1

[3] = compound: CC(C)(C)Cn1c(N)nc2ccc(-c3[nH]c(C(C)(C)C)nc3-c3ccc(F)cc3)nc21 [ralimetinib]
Method in brief: as §1

[4] = compound: CC(C)(O)CC(=O)NCCn1ccc2ncnc(Nc3ccc(Oc4cccc(C(F)(F)F)c4)c(Cl)c3)c21
Method in brief: as §1

[5] = compound: CC(C)C1=C2N=C(C=C(N2N=C1)NCC3=CC=CC=C3)NCCCCCCN
Method in brief: as §1

[6] = compound: CC1=C(C(CC(=O)N1)C2=CC=C(C=C2)C(F)(F)F)C(=O)NC3=C(C=C4C(=C3)C=NN4)F
Method in brief: as §1

[7] = compound: CC1=C(C2=C(C=C1)C(=O)C3=CC=CC=C3N2CCCN)C
Method in brief: as §1

[8] = compound: CC1=C(C=C(C=C1)NC(=O)C2=CC(=CC=C2)C(C)(C)C#N)NC3=CC4=C(C=C3)N=CN(C4=O)C
Method in brief: as §1

[9] = compound: CC1=C(C=C(C=C1)NC(=O)C2=CC(=CC=C2)N(C)C)NC(=O)C3=CC=C(C=C3)O
Method in brief: as §1

[10] = compound: CC1=CC=C(C=C1)SC2=C3C=C(SC3=CN=C2)C(=O)N
Method in brief: as §1

[11] = compound: CCCS(=O)(=O)Nc1ccc(F)c(C(=O)c2c[nH]c3ncc(-c4ccc(Cl)cc4)cc23)c1F [vemurafenib]
Method in brief: as §1

[12] = compound: CCCS(=O)(=O)Nc1ccc(F)c(C(=O)c2c[nH]c3ncc(Cl)cc23)c1F
Method in brief: as §1

[13] = compound: CCN(CCCOc1ccc2c(Nc3cc(CC(=O)Nc4cccc(F)c4)[nH]n3)ncnc2c1)CCOP(=O)(O)O [barasertib]
Method in brief: as §1

[14] = compound: CC[C@@H]1C(=O)N(C)c2cnc(Nc3ccc(C(=O)NC4CCN(C)CC4)cc3OC)nc2N1C1CCCC1
Method in brief: as §1

[15] = compound: CC[C@@H]1C(=O)N(C)c2cnc(Nc3ccc(C(=O)N[C@H]4CC[C@H](N5CCN(CC6CC6)CC5)CC4)cc3OC)nc2N1C(C)C [volasertib]
Method in brief: as §1

[16] = compound: CCn1c(C(=O)N(C2CC2)C2CC2)cc2c3c(ncn3C)c(Nc3cc(C)n(C)n3)nc21
Method in brief: as §1

[17] = compound: CCn1cc(-c2ccnc3[nH]c(-c4cccc(CN(C)C)c4)cc23)c(-c2ccc(NC(=O)N(C)C)cc2)n1
Method in brief: as §1

[18] = compound: CN1CCC(CNc2ccc3ncc(-c4cccc(OC(F)(F)F)c4)n3n2)CC1
Method in brief: as §1

[19] = compound: CN1CCN(CCOc2cc(OC3CCOCC3)c3c(Nc4c(Cl)ccc5c4OCO5)ncnc3c2)CC1 [saracatinib]
Method in brief: as §1

[20] = compound: CN1CCN(c2nc(C3=C(c4c[nH]c5ccccc45)C(=O)NC3=O)c3ccccc3n2)CC1 [sotrastaurin]
Method in brief: as §1

Measured: log2 fold change

NXF1 (UniProt Q9UBU9)
inactive: [1] 0.017 | [2] 0.021 | [3] 0.043 | [4] -0.028 | [5] 0.067 | [6] -0.001 | [7] -0.028 | [8] -0.022 | [9] 0.009 | [10] 0.036 | [11] -0.024 | [12] -0.005 | [13] 0.061 | [14] -0.001 | [15] -0.074 | [16] -0.017 | [17] 0.364 | [18] -0.149 | [19] 0.029 | [20] 0.001

OGFOD1 (UniProt Q8N543)
inactive: [1] 0.01 | [2] 0.004 | [3] -0.008 | [4] -0.049 | [5] -0.052 | [6] -0.036 | [7] 0.002 | [8] -0.038 | [9] 0.021 | [10] -0.003 | [11] -0.01 | [12] 0.016 | [13] 0.016 | [14] -0.034 | [15] -0.03 | [16] -0.033 | [17] 0.003 | [18] 0.047 | [19] -0.002 | [20] -0.012

OGFOD3 (UniProt Q6PK18)
inactive: [1] 0.138 | [2] -0.041 | [3] 0 | [4] 0.019 | [5] -0.001 | [6] 0.155 | [7] -0.021 | [8] -0.068 | [9] -0.004 | [10] -0.068 | [11] -0.005 | [12] 0.011 | [13] -0.063 | [14] -0.152 | [15] -0.007 | [16] -0.036 | [17] 0.19 | [18] -0.022 | [19] -0.037 | [20] -0.013

Fetched one by one from the entries so far (two):
NXF1 (UniProt Q9UBU9)
inactive: [1] 0.017 | [2] 0.021 | [3] 0.043 | [4] -0.028 | [5] 0.067 | [6] -0.001 | [7] -0.028 | [8] -0.022 | [9] 0.009 | [10] 0.036 | [11] -0.024 | [12] -0.005 | [13] 0.061 | [14] -0.001 | [15] -0.074 | [16] -0.017 | [17] 0.364 | [18] -0.149 | [19] 0.029 | [20] 0.001

OGFOD1 (UniProt Q8N543)
inactive: [1] 0.01 | [2] 0.004 | [3] -0.008 | [4] -0.049 | [5] -0.052 | [6] -0.036 | [7] 0.002 | [8] -0.038 | [9] 0.021 | [10] -0.003 | [11] -0.01 | [12] 0.016 | [13] 0.016 | [14] -0.034 | [15] -0.03 | [16] -0.033 | [17] 0.003 | [18] 0.047 | [19] -0.002 | [20] -0.012

More entries follow:

OLA1 (UniProt Q9NTK5)
inactive: [1] 0.009 | [2] -0.002 | [3] 0.015 | [4] 0.03 | [5] 0.02 | [6] -0.023 | [7] 0.023 | [8] -0.004 | [9] 0.029 | [10] 0.014 | [11] 0.025 | [12] 0.001 | [13] 0.012 | [14] -0.047 | [15] -0.029 | [16] 0.04 | [17] -0.135 | [18] 0.035 | [19] -0.003 | [20] 0.026

OMA1 (UniProt Q96E52)
inactive: [1] 0.023 | [2] 0.026 | [3] -0.026 | [4] -0.04 | [5] 0.004 | [6] -0.066 | [7] 0.004 | [8] 0.033 | [9] 0.023 | [10] 0.024 | [11] -0.005 | [12] 0.058 | [13] -0.017 | [14] 0.009 | [15] -0.028 | [16] 0 | [17] -0.027 | [18] -0.045 | [19] -0.001 | [20] -0.017

OSGEP (UniProt Q9NPF4)
inactive: [1] -0.009 | [2] 0.02 | [3] 0.022 | [4] -0.03 | [5] -0.003 | [6] 0 | [7] 0.001 | [8] 0.012 | [9] -0.057 | [10] -0.002 | [11] 0.003 | [12] 0.026 | [13] 0.031 | [14] -0.059 | [15] -0.037 | [16] -0.03 | [17] -0.065 | [18] 0.026 | [19] -0.006 | [20] -0.008

OGFOD2 (UniProt Q6N063)
inactive: [1] 0.002 | [2] 0.023 | [3] -0.012 | [4] -0.018 | [5] -0.125 | [6] -0.023 | [7] 0.025 | [8] -0.04 | [9] -0.029 | [10] -0.023 | [11] 0.024 | [12] 0.173 | [13] 0.005 | [14] -0.147 | [15] -0.062 | [16] -0.023 | [17] -0.042 | [18] 0.071 | [19] -0.047 | [20] 0.039

OSTM1 (UniProt Q86WC4)
inactive: [1] -0.038 | [2] 0.019 | [3] -0.07 | [4] 0.012 | [5] -0.04 | [6] 0.006 | [7] 0.034 | [8] -0.093 | [9] 0.065 | [10] 0 | [11] -0.006 | [12] -0.025 | [13] 0.064 | [14] -0.003 | [15] 0.027 | [16] -0.02 | [17] 0.353 | [18] -0.066 | [19] 0.008 | [20] 0.031

PAK4 (UniProt O96013)
inactive: [1] 0.049 | [2] 0.372 | [3] -0.016 | [4] -0.001 | [5] -0.102 | [6] 0.023 | [7] -0.087 | [8] -0.064 | [9] -0.012 | [10] 0.034 | [11] -0.016 | [12] -0.06 | [13] -0.005 | [14] -0.131 | [15] -0.134 | [16] 0.259 | [17] 0.02 | [18] 0.3 | [19] -0.018 | [20] 0.063

OSTC (UniProt Q9NRP0)
inactive: [1] 0.173 | [2] -0.003 | [3] 0.085 | [4] -0.049 | [5] 0.032 | [6] -0.015 | [7] -0.049 | [8] 0.003 | [9] -0.004 | [10] -0.06 | [11] -0.126 | [12] -0.009 | [13] 0.177 | [14] -0.158 | [15] 0.04 | [16] 0.036 | [17] -0.157 | [18] 0.024 | [19] 0.142 | [20] -0.055

PAICS (UniProt E9PBS1)
inactive: [1] -0.067 | [2] -0.053 | [3] 0.178 | [4] -0.003 | [5] -0.133 | [6] -0.064 | [7] -0.267 | [8] 0.09 | [9] -0.227 | [10] -0.033 | [11] -0.086 | [12] -0.033 | [13] 0.025 | [14] -0.065 | [15] 0.015 | [16] 0.242 | [17] 0.381 | [18] -0.008 | [19] -0.062 | [20] -0.101

OXSR1 (UniProt O95747)
inactive: [1] 0.031 | [2] 0.01 | [3] 0.008 | [4] 0.005 | [5] 0.021 | [6] 0.019 | [7] 0.003 | [8] -0.005 | [9] -0.001 | [10] -0.008 | [11] 0.003 | [12] 0.036 | [13] 0.071 | [14] -0.054 | [15] -0.071 | [16] 0.015 | [17] 0.004 | [18] -0.063 | [19] 0.022 | [20] -0.011

PAFAH1B2 (UniProt P68402)
inactive: [1] -0.006 | [2] -0.064 | [3] -0.013 | [4] -0.071 | [5] -0.031 | [6] -0.012 | [7] -0.018 | [8] 0.032 | [9] 0.02 | [10] -0.026 | [11] 0.009 | [12] -0.047 | [13] 0.093 | [14] -0.025 | [15] 0.012 | [16] -0.053 | [17] -0.084 | [18] 0.037 | [19] 0.01 | [20] 0.042

PAGE5 (UniProt Q96GU1)
inactive: [1] -0.05 | [2] -0.102 | [3] 0.045 | [4] 0.031 | [5] 0.018 | [6] -0.011 | [7] -0.02 | [8] 0.014 | [9] 0.029 | [10] 0.142 | [11] -0.115 | [12] -0.103 | [13] 0.133 | [14] -0.059 | [15] 0.069 | [16] 0.078 | [17] 0.145 | [18] -0.222 | [19] 0.053 | [20] 0.025

OGFR (UniProt Q9NZT2)
inactive: [1] -0.012 | [2] 0.02 | [3] 0.007 | [4] -0.011 | [5] -0.008 | [6] 0.001 | [7] -0.016 | [8] -0.027 | [9] -0.003 | [10] 0.002 | [11] -0.033 | [12] 0.025 | [13] 0.003 | [14] -0.012 | [15] -0.067 | [16] 0.004 | [17] 0.12 | [18] -0.039 | [19] 0.022 | [20] 0.053

PAN2 isoform 2 (UniProt Q504Q3)
inactive: [1] -0.141 | [2] 0.036 | [3] 0.022 | [4] -0.022 | [5] -0.025 | [6] 0.022 | [7] 0.015 | [8] 0.012 | [9] -0.038 | [10] 0.027 | [11] 0.072 | [12] 0.031 | [13] 0.03 | [14] 0.041 | [15] -0.132 | [16] 0.031 | [17] 0.006 | [18] -0.04 | [19] -0.021 | [20] 0.018
